PubChem BioAssay AID1259405, NCATS, 2018
Assay: 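Knock-downs that lift recombinant protein yield in hamster ovary cells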 (primary screen). System: Chinese hamster CHO-K1 ovary cells with stable secreted eGFP expression. Knock-down reagent: single siRNA against mouse genes, 0.8 pmol siRNA per well (2 µl of 400 nM stock). Duration: 3 days. Measured: 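Percent of the per-plate non-targeting control median for intracellular GFP per well by laser scanning cytometry and for cell viability by ATP luminescence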. Reading the numbers: GFP, % of control: higher = more GFP per well, higher productivity; viability (ATP), % of control: higher = more viable cells (more ATP). Call rule: 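Called active when intracellular GFP, relative to negative control, is at or above 120%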.
Here is one part, drawn at random, of about 50,000 deposited reagents. About 4,000 of them (8%) count as active. 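Mouse siRNA library applied to hamster cells; one well for each siRNA.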 Entries without a mark were called inactive. The numbers tell different reagents against one gene apart.

| Gene | reagent no. | GFP, % of control | viability (ATP), % of control |
| --- | --- | --- | --- |
| Zbtb12 | 1 | 88.6 | 69.1 |
| Zbtb12 | 2 | 61.2 | 55.9 |
| Csf2 | 1 | 63.6 | 46.7 |
| Csf2 | 2 | 116 | 90.2 |
| Csf2 | 3 | 69.5 | 72.1 |
| Cyth1 | 1 | 68.4 | 60.3 |
| Cyth1 | 2 | 97.7 | 117 |
| Cyth1 | 3 | 71.9 | 61.1 |
| Khdrbs2 | 1 | 52.8 | 56 |
| Khdrbs2 | 2 | 95.7 | 105 |
| Khdrbs2 | 3 | 35.3 | 31.5 |
| Orc6 | 1 | 102 | 80.2 |
| Orc6 | 2 | 62.2 | 65 |
| Orc6 | 3 | 74.9 | 71.1 |
| Phc2 | 1 | 83.5 | 92.6 |
| Phc2 | 2 | 70.1 | 55.7 |
| Phc2 | 3 | 90.1 | 72.9 |
| Or5k8 | 1 | 86.2 | 51.8 |
| Or5k8 | 2 | 58.9 | 69.1 |
| Or5k8 | 3 | 48.2 | 104 |
| Vma22 | 1 | 99.4 | 98.5 |
| Vma22 | 2 | 64.8 | 52.9 |
| Vma22 | 3 | 16.6 | 34.1 |
| Abca12 | 1 | 74.5 | 94.2 |
| Abca12 | 2 | 74.7 | 68.5 |
| Abca12 | 3 | 72.7 | 102 |
| Pde7a | 1 | 102 | 80.9 |
| Pde7a | 2 | 44.9 | 34 |
| Pde7a | 3 | 33.7 | 30.5 |
| Usf1 | 1 | 38.1 | 82.9 |
| Usf1 | 2 | 79.4 | 92.5 |
| Usf1 | 3 | 54.5 | 103 |

Continued (4 carried over from the part before).
| Gene | reagent no. | GFP, % of control | viability (ATP), % of control |
| --- | --- | --- | --- |
| Pde7a | 3 | 33.7 | 30.5 |
| Usf1 | 1 | 38.1 | 82.9 |
| Usf1 | 2 | 79.4 | 92.5 |
| Usf1 | 3 | 54.5 | 103 |
| Dnai7 | 1 | 99.7 | 95.4 |
| Dnai7 | 2 | 87.9 | 83.7 |
| Dnai7 | 3 | 65 | 103 |
| Tasp1 | 1 | 90.2 | 72.9 |
| Tasp1 | 2 | 77.8 | 56.3 |
| Tasp1 | 3 | 63 | 56.3 |
| Ripor2 | 1 | 59.7 | 61.8 |
| Ripor2 | 2 | 73.1 | 88.2 |
| Ripor2 | 3 | 114 | 99.8 |
| Golga7b | 1 | 63.4 | 51 |
| Golga7b | 2 | 82.7 | 98.4 |
| Golga7b | 3 | 81.4 | 139 |
| Zswim2 | 1 | 80.4 | 92.8 |
| Zswim2 | 2 | 105 | 54.4 |
| Zswim2 | 3 | 96.6 | 115 |
| Elp2 | 1 | 115 | 101 |
| Elp2 | 2 | 65.7 | 96.3 |
| Elp2 | 3 | 65 | 78.8 |
| Or2aj5 | 1 | 28.4 | 18.1 |
| Or2aj5 | 2 | 124 (active) | 47 |
| Or2aj5 | 3 | 63.7 | 78.3 |
| Dcaf8 | 1 | 49.1 | 77.6 |
| Dcaf8 | 2 | 76.2 | 85 |
| Dcaf8 | 3 | 68.4 | 71.7 |
| Mdfic | 1 | 39.3 | 54 |
| Mdfic | 2 | 79.2 | 68.7 |
| Mdfic | 3 | 34.1 | 41.2 |
